PubChem BioAssay AID1508597, Cure First | 2020
This is an unselected part of the about 2,100 reagents, under one of the conditions tested. 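Calls flag viability under 80% in either arm, not effects specific to rucaparib; the reference for percent is not stated.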 Entries without a mark were called inactive. Not stated in the record: the 100% reference.

- Purpose: 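Knock-downs altering ovarian cancer cell survival with or without PARP inhibitor rucaparib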 (primary screen)
- System: human ovarian carcinoma lines grown from tumours: OCI-P5x (papillary serous) and OCI-C5x (clear cell)
- Reagent: siRNA pool against human genes, 1.25 pmol siRNA per well
- Duration: 72 h or 96 h, depending on the cell culture
- Conditions: rucaparib 20 µM (about IC30) or vehicle, present until read-out
- Rucaparib or vehicle: Rucaparib
- Cell line: OCI-P5x (serous)
- Measured: 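ATP luminescence measured at 72 or 96 h according to the culture, then normalised and expressed as percent viability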
- Reading the numbers: viability, normalised: higher = more viable cells remaining
- Hit rule: 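Active when normalised viability falls below 80 percent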
- Calls: active = viability under 80%; inactive = viability 80% or more

ASF1A (anti-silencing function 1A histone chaperone), technical replicate 1: viability, normalised (%) = 72.8 (active)
ASF1A (anti-silencing function 1A histone chaperone), technical replicate 2: viability, normalised (%) = 96
ASF1A (anti-silencing function 1A histone chaperone), technical replicate 3: viability, normalised (%) = 88.5
TTN (titin), technical replicate 1: viability, normalised (%) = 92.3
TTN (titin), technical replicate 2: viability, normalised (%) = 108
TTN (titin), technical replicate 3: viability, normalised (%) = 104
GDPD4 (glycerophosphodiester phosphodiesterase domain containing 4), technical replicate 1: viability, normalised (%) = 49.1 (active)
GDPD4 (glycerophosphodiester phosphodiesterase domain containing 4), technical replicate 2: viability, normalised (%) = 40.2 (active)
GDPD4 (glycerophosphodiester phosphodiesterase domain containing 4), technical replicate 3: viability, normalised (%) = 36.9 (active)
CEBPG (CCAAT enhancer binding protein gamma), technical replicate 1: viability, normalised (%) = 60.6 (active)
CEBPG (CCAAT enhancer binding protein gamma), technical replicate 2: viability, normalised (%) = 74.9 (active)
CEBPG (CCAAT enhancer binding protein gamma), technical replicate 3: viability, normalised (%) = 71.5 (active)
KLF6 (KLF transcription factor 6), technical replicate 1: viability, normalised (%) = 78.1 (active)
KLF6 (KLF transcription factor 6), technical replicate 2: viability, normalised (%) = 58.7 (active)
KLF6 (KLF transcription factor 6), technical replicate 3: viability, normalised (%) = 75.2 (active)
STK33 (serine/threonine kinase 33), technical replicate 1: viability, normalised (%) = 85.3
STK33 (serine/threonine kinase 33), technical replicate 2: viability, normalised (%) = 72.8 (active)
STK33 (serine/threonine kinase 33), technical replicate 3: viability, normalised (%) = 71 (active)
PHF19 (PHD finger protein 19), technical replicate 1: viability, normalised (%) = 29.4 (active)
PHF19 (PHD finger protein 19), technical replicate 2: viability, normalised (%) = 38.5 (active)
PHF19 (PHD finger protein 19), technical replicate 3: viability, normalised (%) = 42 (active)
GATAD2A (GATA zinc finger domain containing 2A), technical replicate 1: viability, normalised (%) = 72 (active)
GATAD2A (GATA zinc finger domain containing 2A), technical replicate 2: viability, normalised (%) = 66.2 (active)
GATAD2A (GATA zinc finger domain containing 2A), technical replicate 3: viability, normalised (%) = 69.9 (active)
ACTR8 (actin related protein 8), technical replicate 1: viability, normalised (%) = 37.1 (active)
ACTR8 (actin related protein 8), technical replicate 2: viability, normalised (%) = 43.6 (active)
ACTR8 (actin related protein 8), technical replicate 3: viability, normalised (%) = 58.4 (active)
IL10 (interleukin 10), technical replicate 1: viability, normalised (%) = 92.3
IL10 (interleukin 10), technical replicate 2: viability, normalised (%) = 63.5 (active)
IL10 (interleukin 10), technical replicate 3: viability, normalised (%) = 67.4 (active)
GDPD5 (glycerophosphodiester phosphodiesterase domain containing 5), technical replicate 1: viability, normalised (%) = 51.4 (active)
GDPD5 (glycerophosphodiester phosphodiesterase domain containing 5), technical replicate 2: viability, normalised (%) = 54.4 (active)
GDPD5 (glycerophosphodiester phosphodiesterase domain containing 5), technical replicate 3: viability, normalised (%) = 51.7 (active)
PLCE1 (phospholipase C epsilon 1), technical replicate 1: viability, normalised (%) = 52.2 (active)
PLCE1 (phospholipase C epsilon 1), technical replicate 2: viability, normalised (%) = 45.1 (active)
PLCE1 (phospholipase C epsilon 1), technical replicate 3: viability, normalised (%) = 55.7 (active)
PHF8 (PHD finger protein 8), technical replicate 1: viability, normalised (%) = 43.1 (active)
PHF8 (PHD finger protein 8), technical replicate 2: viability, normalised (%) = 47.6 (active)
PHF8 (PHD finger protein 8), technical replicate 3: viability, normalised (%) = 49.8 (active)
ARL8A (ARF like GTPase 8A), technical replicate 1: viability, normalised (%) = 70.2 (active)
ARL8A (ARF like GTPase 8A), technical replicate 2: viability, normalised (%) = 70.3 (active)
ARL8A (ARF like GTPase 8A), technical replicate 3: viability, normalised (%) = 84.5

2 entries from above, ordered by “viability, normalised (%)”, lowest first.
ACTR8 (actin related protein 8), technical replicate 2: viability, normalised (%) = 43.6 (active)
ACTR8 (actin related protein 8), technical replicate 3: viability, normalised (%) = 58.4 (active)
